The target of this assay is T1, SET and MYND domain containing 3 (SMYD3) (human (endogenous in OCI-LY8)) (UniProt Q9H7B4).
T1 sequence: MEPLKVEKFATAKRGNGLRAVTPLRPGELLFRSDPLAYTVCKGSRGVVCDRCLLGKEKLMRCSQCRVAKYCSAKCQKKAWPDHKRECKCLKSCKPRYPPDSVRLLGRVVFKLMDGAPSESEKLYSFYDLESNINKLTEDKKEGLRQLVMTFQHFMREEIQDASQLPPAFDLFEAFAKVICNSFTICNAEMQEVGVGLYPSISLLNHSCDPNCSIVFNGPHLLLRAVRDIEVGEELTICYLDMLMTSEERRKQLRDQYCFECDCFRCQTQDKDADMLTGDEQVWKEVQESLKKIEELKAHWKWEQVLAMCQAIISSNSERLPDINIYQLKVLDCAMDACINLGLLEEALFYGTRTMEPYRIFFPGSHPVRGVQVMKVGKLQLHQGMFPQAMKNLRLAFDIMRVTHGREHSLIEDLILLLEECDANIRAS
The assay can be described thus: affinity purification with mass spectrometry; endogenous co-IP with an anti-SMYD3 antibody from OCI-LY8 whole cell lysate (RIPA lysis buffer), protein A/G agarose beads, five washes with PBS, SDS-PAGE, Coomassie-stained bands excised, trypsin, nano-HPLC-MS/MS; IgG as control.

Results are given in words; binding and its absence hold for the method and conditions named. In cells and extracts the contact can be indirect. A yes stands for co-enrichment or nearness to the bait. Other partners may have been found.

B1: Activating Transcription Factor 7 Interacting Protein (ATF7IP) (protein, UniProt Q6VMQ6 1-1270)
chain: MDSLEEPQKKVFKARKTMRVSDRQQLEAVYKVKEELLKTDVKLLNGNHENGDLDPTSPLENMDYIKDKEEVNGIEEICFDPEGSKAEWKETPCILSVNVKNKQDDDLNCEPLSPHNITPEPVSKLPAEPVSGDPAPGDLDAGDPASGVLASGDSTSGDPTSSEPSSSDAASGDATSGDAPSGDVSPGDATSGDATADDLSSGDPTSSDPIPGEPVPVEPISGDCAADDIASSEITSVDLASGAPASTDPASDDLASGDLSSSELASDDLATGELASDELTSESTFDRTFEPKSVPVCEPVPEIDNIEPSSNKDDDFLEKNGADEKLEQIQSKDSLDEKNKADNNIDANEETLETDDTTICSDRPPENEKKVEEDIITELALGEDAISSSMEIDQGEKNEDETSADLVETINENVIEDNKSENILENTDSMETDEIIPILEKLAPSEDELTCFSKTSLLPIDETNPDLEEKMESSFGSPSKQESSESLPKEAFLVLSDEEDISGEKDESEVISQNETCSPAEVESNEKDNKPEEEEQVIHEDDERPSEKNEFSRRKRSKSEDMDNVQSKRRRYMEEEYEAEFQVKITAKGDINQKLQKVIQWLLEEKLCALQCAVFDKTLAELKTRVEKIECNKRHKTVLTELQAKIARLTKRFEAAKEDLKKRHEHPPNPPVSPGKTVNDVNSNNNMSYRNAGTVRQMLESKRNVSESAPPSFQTPVNTVSSTNLVTPPAVVSSQPKLQTPVTSGSLTATSVLPAPNTATVVATTQVPSGNPQPTISLQPLPVILHVPVAVSSQPQLLQSHPGTLVTNQPSGNVEFISVQSPPTVSGLTKNPVSLPSLPNPTKPNNVPSVPSPSIQRNPTASAAPLGTTLAVQAVPTAHSIVQATRTSLPTVGPSGLYSPSTNRGPIQMKIPISAFSTSSAAEQNSNTTPRIENQTNKTIDASVSKKAADSTSQCGKATGSDSSGVIDLTMDDEESGASQDPKKLNHTPVSTMSSSQPVSRPLQPIQPAPPLQPSGVPTSGPSQTTIHLLPTAPTTVNVTHRPVTQVTTRLPVPRAPANHQVVYTTLPAPPAQAPLRGTVMQAPAVRQVNPQNSVTVRVPQTTTYVVNNGLTLGSTGPQLTVHHRPPQVHTEPPRPVHPAPLPEAPQPQRLPPEAASTSLPQKPHLKLARVQSQNGIVLSWSVLEVDRSCATVDSYHLYAYHEEPSATVPSQWKKIGEVKALPLPMACTLTQFVSGSKYYFAVRAKDIYGRFGPFCDPQSTDVISSTQSS
In the case of B1, the binding entry was “binds”.

Values taken from publication PMC9440895.
